The source of these data is publication PMC5214336.

Test [1] has as its target T1, His6-tagged Sgt2 (S. cerevisiae) (UniProt Q12118).
T1 sequence: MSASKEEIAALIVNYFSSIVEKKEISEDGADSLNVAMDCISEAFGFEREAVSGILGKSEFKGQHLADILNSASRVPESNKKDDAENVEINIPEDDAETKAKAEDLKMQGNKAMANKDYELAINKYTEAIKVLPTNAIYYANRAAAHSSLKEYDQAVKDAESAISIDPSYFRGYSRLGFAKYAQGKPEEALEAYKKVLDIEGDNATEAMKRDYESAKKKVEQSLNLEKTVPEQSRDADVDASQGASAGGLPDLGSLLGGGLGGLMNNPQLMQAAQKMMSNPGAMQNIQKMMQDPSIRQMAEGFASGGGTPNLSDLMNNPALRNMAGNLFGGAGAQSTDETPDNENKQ
In words: pull-down; TA translated in E. coli S30 lysate with 35S-methionine and 2 µM His6-Sgt2 (30°C, 1 hr) together with an internal control; captured on Ni-NTA agarose at 4°C in capture buffer (50 mM KHEPES pH 7.5, 150 mM KOAc, 5 mM Mg(OAc)2, 10% glycerol, 5 mM β-ME, 20 mM imidazole); SDS-PAGE and autoradiography; efficiencies normalised to the control; only the target purified.

Test [2] concerns the target T2, His6-tagged Get3 (S. cerevisiae) (UniProt Q12154).
T2 sequence: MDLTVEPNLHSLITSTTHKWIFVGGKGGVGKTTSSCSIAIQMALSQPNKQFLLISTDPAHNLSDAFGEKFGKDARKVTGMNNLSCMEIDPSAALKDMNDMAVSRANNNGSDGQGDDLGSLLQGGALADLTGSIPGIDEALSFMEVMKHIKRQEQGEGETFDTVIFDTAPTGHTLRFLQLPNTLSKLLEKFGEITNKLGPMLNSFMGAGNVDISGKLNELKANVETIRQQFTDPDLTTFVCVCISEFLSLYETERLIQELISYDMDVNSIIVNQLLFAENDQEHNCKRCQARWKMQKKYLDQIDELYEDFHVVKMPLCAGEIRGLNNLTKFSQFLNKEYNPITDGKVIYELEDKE
The experiment in a line: pull-down; TA translated in E. coli S30 lysate with 35S-methionine and 2 µM untagged Sgt2; then 2 mM ATP, 2 µM Get4/5 and 2 µM His6-Get3 for 1 hr; Get3•TA purified on Ni-NTA; only the target purified.

For test [3], the target named is T3, Bos1 model TA substrate (3xStrep-SUMO-Bos1p(207-244)-opsin) (S. cerevisiae) (UniProt P25385).
T3 sequence: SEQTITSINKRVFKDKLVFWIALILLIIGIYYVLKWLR
In words: pull-down; TA translated in E. coli S30 lysate with His6-Sgt2, His6-Get4/5 and His6-Get3 added at the start (2 hr); captured by the 3xStrep tag of the TA on Strep-Tactin Sepharose, washed with GET buffer with 500 mM NaCl and GET buffer, eluted with biotin; SDS-PAGE and western blot against His6; only the binder purified. On the technique in general: In western blotting, separated proteins are transferred to a membrane and probed.

No constants are given. Whether binding was seen depends on the method and setting. Binding seen in cells or lysates may run through a third protein. Some entries that bind do so weakly or less than the wild type. Where a sequence is shown, tags or fusion partners need not be part of it.

Take SEQTITSINKRVFKDKLVFWIALILLIIGIYYVLKWLR (domain or fragment, UniProt P25385 223-244) [Bos1 model TA substrate (3xStrep-SUMO-Bos1p(207-244)-opsin)]: the binding result in test [1] and in test [2] was “binds” in each case.

As to SEQTITSINKRVFKDKLVFWIALILLIIGIYYVLKWLR (domain or fragment, UniProt P25385 223-244) [Bos1 construct lacking the N-terminal 3xStrep tag], the binding result in test [1] is “binds”.

B1: His6-tagged Get4/5 (complex, UniProt Q12125 1-312; Q12285 1-212)
chain 1: MVPAESNAVQAKLAKTLQRFENKIKAGDYYEAHQTLRTIANRYVRSKSYEHAIELISQGALSFLKAKQGGSGTDLIFYLLEVYDLAEVKVDDISVARLVRLIAELDPSEPNLKDVITGMNNWSIKFSEYKFGDPYLHNTIGSKLLEGDFVYEAERYFMLGTHDSMIKYVDLLWDWLCQVDDIEDSTVAEFFSRLVFNYLFISNISFAHESKDIFLERFIEKFHPKYEKIDKNGYEIVFFEDYSDLNFLQLLLITCQTKDKSYFLNLKNHYLDFSQAYKSELEFLGQEYFNIVAPKQTNFLQDMMSGFLGGSK
chain 2: MSTSASGPEHEFVSKFLTLATLTEPKLPKSYTKPLKDVTNLGVPLPTLKYKYKQNRAKKLKLHQDQQGQDNAAVHLTLKKIQAPKFSIEHDFSPSDTILQIKQHLISEEKASHISEIKLLLKGKVLHDNLFLSDLKVTPANSTITVMIKPNPTISKEPEAEKSTNSPAPAPPQELTVPWDDIEALLKNNFENDQAAVRQVMERLQKGWSLAK
Regarding B1, the binding result in test [3] is on record as “no binding”.

B2: His6-tagged Get3 (enzyme, UniProt Q12154 1-354)
chain: MDLTVEPNLHSLITSTTHKWIFVGGKGGVGKTTSSCSIAIQMALSQPNKQFLLISTDPAHNLSDAFGEKFGKDARKVTGMNNLSCMEIDPSAALKDMNDMAVSRANNNGSDGQGDDLGSLLQGGALADLTGSIPGIDEALSFMEVMKHIKRQEQGEGETFDTVIFDTAPTGHTLRFLQLPNTLSKLLEKFGEITNKLGPMLNSFMGAGNVDISGKLNELKANVETIRQQFTDPDLTTFVCVCISEFLSLYETERLIQELISYDMDVNSIIVNQLLFAENDQEHNCKRCQARWKMQKKYLDQIDELYEDFHVVKMPLCAGEIRGLNNLTKFSQFLNKEYNPITDGKVIYELEDKE
For the molecule B2, the binding result in test [3] was “binds”.
